Assay results from the supplement of paper PMC10689618.
This is one part of the list. Single values are uncertain, as repeats are few or missing.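 Primary human fetal astrocytes engulfed labelled rat cortical synaptosomes, measured as a red/green ratio corrected for calcein live-cell signal and scaled to the plate median. Toxicity meant calcein falling over 30%; decreased phagocytosis meant below 70% of median above 5 µM.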

How the values were obtained:
[1] = test system: Human fetal astrocytes; assay: loss of total cells relative to no-compound high-control median (toxicity); higher = more toxic (fewer cells); conditions: 24 h
[2] = test system: Human fetal astrocytes; assay: synaptosome phagocytosis (pHrodo/calcein intensity ratio) relative to plate median of data wells; higher = more phagocytosis; conditions: 24 h

| SMILES | loss of total cells ([1]; 1.39 µM) | loss of total cells ([1]; 2.78 µM) | loss of total cells ([1]; 5.56 µM) | loss of total cells ([1]; 11.11 µM) | loss of total cells ([1]; 22.22 µM) | synaptosome phagocytosis ([2]; 1.39 µM) | synaptosome phagocytosis ([2]; 2.78 µM) | synaptosome phagocytosis ([2]; 5.56 µM) | synaptosome phagocytosis ([2]; 11.11 µM) | synaptosome phagocytosis ([2]; 22.22 µM) |
| --- | --- | --- | --- | --- | --- | --- | --- | --- | --- | --- |
| CN(Cc1cnc2nc(N)nc(N)c2n1)c1ccc(C(=O)NC(CCC(=O)O)C(=O)O)cc1 (stereo not given) | -4.1% | -9.5% | 0.3% | 14.1% | 13% | 91.7% | 85.2% | 82.3% | 56.4% | 89.6% |
| COc1ccc([C@@H]2Sc3ccccc3N(CCN(C)C)C(=O)[C@@H]2OC(C)=O)cc1 | -4% | 11.3% | -13.7% | 29% | -11.5% | 121% | 70.4% | 67.3% | 110% | 70.9% |
| CC1(C)CCC[C@]2(C)[C@@H]3[C@H]1[C@@H](O)[C@@]2(C)C[C@H]3O | -9% | 0.4% | -2.9% | 9.5% | 4.4% | 118% | 102% | 120% | 94.9% | 136% |
| C[C@@](Cc1ccc(O)c(O)c1)(NN)C(=O)O | 13.7% | -21.4% | 6.2% | 12.8% | 5.3% | 148% | 120% | 119% | 115% | 94.7% |
| O=C(O)Cc1cc(I)c(Oc2ccc(O)c(I)c2)c(I)c1 | 11.9% | 26.4% | 19.6% | 13.8% | 25.8% | 94% | 82.6% | 101% | 113% | 105% |
| C/C1=C2/[N-]C([C@H](CC(N)=O)[C@@]2(C)CCC(=O)NCC(C)OP(=O)([O-])OC2C(O)[C@@H](n3cnc4cc(C)c(C)cc43)O[C@@H]2CO)[C@]2(C)N=C(/C(C)=C3N=C(/C=C4N=C1[C@@H](CCC(N)=O)C\4(C)C)[C@@H](CCC(N)=O)[C@]\3(C)CC(N)=O)[C@@H](CCC(N)=O)[C@]2(C)CC(N)=O.[CH2-]C1O[C@H](n2cnc3c(N)ncnc32)[C@@H](O)[C@H]1O.[Co+3] (stereo not given in full) | 10.4% | -6.4% | -2.8% | -6.6% | -10.6% | 100% | 98.9% | 69.2% | 71% | 92.4% |
| CN[C@@H]1[C@H](O[C@H]2[C@H](O[C@H]3[C@H](O)[C@@H](O)[C@H](N=C(N)N)[C@@H](O)[C@@H]3N=C(N)N)O[C@@H](C)[C@]2(O)C=O)O[C@@H](CO)[C@H](O)[C@H]1O | 3.9% | -6.4% | -8.4% | 2% | -7% | 95.9% | 63.5% | 106% | 104% | 63.8% |
| CC(=O)O[C@H]1C[C@@]2(C)[C@@H](C[C@@H](O)[C@H]3[C@@]4(C)CC[C@@H](O)[C@@H](C)[C@@H]4CC[C@@]32C)/C1=C(\CCC=C(C)C)C(=O)O | -16.9% | 17.3% | -8.4% | 13% | 48.3% | 108% | 95.6% | 117% | 79.8% | 103% |
| CN(C)CC/C=C1/c2ccccc2Sc2ccc(Cl)cc21 | -37.1% | 25.4% | 15.5% | 47.5% | 55.1% | 87.8% | 111% | 86.9% | 48.8% | 22.7% |
| COC(=O)C(N)CS (stereo not given) | 16.2% | 1.1% | 23.9% | 7.9% | 27.3% | 121% | 87.9% | 90.3% | 99.6% | 116% |
| C[C@@H]1CC[C@@]2(OC1)O[C@H]1C[C@H]3[C@@H]4CC[C@H]5C[C@@H](O)CC[C@]5(C)[C@H]4C[C@@H](O)[C@]3(C)[C@H]1[C@@H]2C | -19.9% | 10% | -21.4% | -2.6% | -14.4% | 123% | 101% | 101% | 98.6% | 98.5% |
| CCCC(=O)Nc1ccc(OCC(O)CNC(C)C)c(C(C)=O)c1 (stereo not given) | 0% | -5.2% | 13.5% | 8.6% | 18.7% | 130% | 110% | 99.5% | 117% | 107% |
| CC(=O)OCC(=O)[C@@]1(O)CC[C@H]2[C@@H]3C[C@H](C)C4=CC(=O)C=C[C@]4(C)[C@H]3[C@@H](O)C[C@@]21C [6alpha-METHYLPREDNISOLONE ACETATE] | -15.6% | -6.9% | -18.3% | 19.6% | 8.9% | 109% | 130% | 127% | 153% | 118% |
| CC1(C)S[C@@H]2[C@H](NC(=O)[C@H](N)c3ccc(O)cc3)C(=O)N2[C@H]1C(=O)O | 11.6% | -0.3% | 13.5% | 0% | 11.3% | 93.5% | 110% | 115% | 98.1% | 100% |
| OC1(c2ccc(Cl)c(C(F)(F)F)c2)CCN(CCCC(c2ccc(F)cc2)c2ccc(F)cc2)CC1 | 2.5% | 8.8% | 68.2% | 82% | 104% | 69.6% | 54.9% | 21.2% | 36.3% | 0% |
| COc1cccc2c1CCC1=CC(=O)CC[C@@]12C | -17% | 4.7% | 32.1% | 1.9% | 10% | 90.1% | 116% | 146% | 102% | 141% |
| CC12CCC(CC1)C(C)(C)O2 | 8.3% | 14.1% | 2.2% | 2.1% | 16.7% | 106% | 146% | 106% | 108% | 143% |
| COC1=C(O)C(=O)c2c(cc3oc(C(C)=O)c(O)c3c2O)C1=O | 9% | -2.5% | 10.3% | 17.6% | -8.1% | 116% | 115% | 93.9% | 99% | 110% |
| CCN(CC)CCOC(=O)C(c1ccccc1)C1CCCCC1 (stereo not given) | 4% | 19.1% | 21% | 10.5% | 10.6% | 50.8% | 90.5% | 93.9% | 98.6% | 73.1% |
| OC[C@H]1O[C@@H](Oc2ccc(O)cc2)[C@H](O)[C@@H](O)[C@@H]1O | -9.8% | -1.8% | 9.5% | 11.5% | 11.9% | 126% | 109% | 110% | 107% | 129% |
| CC(=O)/C(=C\c1ccccc1)CC(=O)O | -8.2% | 0.4% | 7.3% | 14.9% | 21.5% | 104% | 112% | 88.5% | 92.3% | 92.9% |

Reprinted from above (three entries):

| SMILES | loss of total cells ([1]; 1.39 µM) | loss of total cells ([1]; 2.78 µM) | loss of total cells ([1]; 5.56 µM) | loss of total cells ([1]; 11.11 µM) | loss of total cells ([1]; 22.22 µM) | synaptosome phagocytosis ([2]; 1.39 µM) | synaptosome phagocytosis ([2]; 2.78 µM) | synaptosome phagocytosis ([2]; 5.56 µM) | synaptosome phagocytosis ([2]; 11.11 µM) | synaptosome phagocytosis ([2]; 22.22 µM) |
| --- | --- | --- | --- | --- | --- | --- | --- | --- | --- | --- |
| C/C1=C2/[N-]C([C@H](CC(N)=O)[C@@]2(C)CCC(=O)NCC(C)OP(=O)([O-])OC2C(O)[C@@H](n3cnc4cc(C)c(C)cc43)O[C@@H]2CO)[C@]2(C)N=C(/C(C)=C3N=C(/C=C4N=C1[C@@H](CCC(N)=O)C\4(C)C)[C@@H](CCC(N)=O)[C@]\3(C)CC(N)=O)[C@@H](CCC(N)=O)[C@]2(C)CC(N)=O.[CH2-]C1O[C@H](n2cnc3c(N)ncnc32)[C@@H](O)[C@H]1O.[Co+3] (stereo not given in full) | 10.4% | -6.4% | -2.8% | -6.6% | -10.6% | 100% | 98.9% | 69.2% | 71% | 92.4% |
| CN[C@@H]1[C@H](O[C@H]2[C@H](O[C@H]3[C@H](O)[C@@H](O)[C@H](N=C(N)N)[C@@H](O)[C@@H]3N=C(N)N)O[C@@H](C)[C@]2(O)C=O)O[C@@H](CO)[C@H](O)[C@H]1O | 3.9% | -6.4% | -8.4% | 2% | -7% | 95.9% | 63.5% | 106% | 104% | 63.8% |
| CC(=O)O[C@H]1C[C@@]2(C)[C@@H](C[C@@H](O)[C@H]3[C@@]4(C)CC[C@@H](O)[C@@H](C)[C@@H]4CC[C@@]32C)/C1=C(\CCC=C(C)C)C(=O)O | -16.9% | 17.3% | -8.4% | 13% | 48.3% | 108% | 95.6% | 117% | 79.8% | 103% |

Carrying on.

| SMILES | loss of total cells ([1]; 1.39 µM) | loss of total cells ([1]; 2.78 µM) | loss of total cells ([1]; 5.56 µM) | loss of total cells ([1]; 11.11 µM) | loss of total cells ([1]; 22.22 µM) | synaptosome phagocytosis ([2]; 1.39 µM) | synaptosome phagocytosis ([2]; 2.78 µM) | synaptosome phagocytosis ([2]; 5.56 µM) | synaptosome phagocytosis ([2]; 11.11 µM) | synaptosome phagocytosis ([2]; 22.22 µM) |
| --- | --- | --- | --- | --- | --- | --- | --- | --- | --- | --- |
| CC(=O)Oc1cc(C)c2c(c1C(OC(C)=O)OC(C)=O)Oc1c(c(C)c(OC(C)=O)c3c1C(OC(C)=O)OC3=O)OC2=O (stereo not given) | -3.3% | 21.9% | -3.8% | 33.5% | 6.3% | 117% | 104% | 107% | 115% | 81.4% |
| Cc1cc(=O)[nH]c(=S)[nH]1 | 34.7% | 11.2% | 18.1% | 8.4% | -10.6% | 79.4% | 110% | 145% | 128% | 110% |
| COC(=O)[C@H](c1ccccc1Cl)N1CCc2sccc2C1 | -43.5% | -19.8% | -4.3% | 27.9% | 12.8% | 90.8% | 96% | 117% | 124% | 98.2% |
| CC[N+](CC)(CC(=O)Nc1c(C)cccc1C)Cc1ccccc1 | -17.8% | 0% | -36.6% | -5.8% | 7% | 91.1% | 99.2% | 55.4% | 78.4% | 82.4% |
| C[N+]1(C)[C@@H]2CC[C@H]1C[C@@H](OC(=O)C(O)c1ccccc1)C2 (stereo not given in full) | -8% | -16.6% | -14.6% | -17% | 2.1% | 78.8% | 94.6% | 101% | 116% | 74.7% |
| Nc1ccc(/N=N/c2ccccc2)c(N)n1 | 0.8% | -4.6% | 14.7% | 16.4% | 18.7% | 110% | 102% | 94.5% | 42.3% | 46.5% |
| N=c1ccn2c(n1)O[C@H]1[C@H](O)[C@@H](CO)O[C@H]12 | 20.6% | 19.1% | 11.6% | 19.7% | 14.4% | 106% | 97.6% | 109% | 140% | 77.3% |
| COc1ccc2c(=O)c(OC)c(-c3ccccc3)oc2c1 | -15.6% | -6.1% | 4.4% | 0% | -1.5% | 77.4% | 85.3% | 87% | 79.9% | 111% |
| C#C[C@]1(OC(C)=O)CC[C@H]2[C@@H]3CCC4=CC(=O)CC[C@@H]4[C@H]3CC[C@@]21C | 0.3% | -25.4% | -2.1% | 6.6% | -11.2% | 84.8% | 63.7% | 99.2% | 88.2% | 97% |
| COc1ccc(C(=O)CC(=O)O)c2c1C=CC(C)(C)O2 | -9% | -6.1% | -8.8% | 4.7% | 0% | 99.2% | 91.8% | 122% | 90.3% | 104% |
| COC(=O)C[C@H]1C(C)(C)[C@@H](O)[C@@H]2CC3=C4CC(O)O[C@@H](c5ccoc5)[C@]4(C)CCC3[C@@]1(C)C2=O (stereo partly drawn) [3,16-DIDEOXYMEXICANOLIDE-3beta-DIOL] | 13.4% | 34.6% | -4.6% | 8.4% | 8.5% | 53.3% | 90.1% | 99.5% | 54.6% | 87.3% |
| CC(=O)Nc1ccc(S(=O)(=O)Nc2ccc([N+](=O)[O-])cc2)cc1 | 26.6% | -34.1% | -7.5% | -4.9% | 9% | 126% | 109% | 109% | 85.1% | 105% |
| CC/C(=C(/CC)c1ccc(O)cc1)c1ccc(O)cc1 | 3.9% | -26.8% | -14.6% | 6.1% | -8.2% | 118% | 111% | 110% | 88.1% | 81.2% |
| COc1cc(-c2ccc(/N=N/c3ccc4c(S(=O)(=O)O)cc(S(=O)(=O)O)c(N)c4c3O)c(OC)c2)ccc1/N=N/c1ccc2c(S(=O)(=O)O)cc(S(=O)(=O)O)c(N)c2c1O | 14.1% | 5.4% | 37% | 54.8% | 65.9% | 108% | 90.2% | 52.4% | 128% | 110% |
| O=c1cc(-c2ccc(O)c(O)c2)oc2cc(O)cc(O)c12 | -11.5% | 14.1% | 12.5% | 31.8% | 25.2% | 96.1% | 100% | 103% | 121% | 109% |
| COc1c(N2CCNC(C)C2)c(F)cc2c(=O)c(C(=O)O)cn(C3CC3)c12 (stereo not given) | 13.7% | -38.1% | 5% | -5.6% | -0.9% | 114% | 91.7% | 95.2% | 106% | 104% |
| O=C1c2cccc(O)c2C(=O)c2c(O)cccc21 | -37.3% | -4.6% | -8.7% | -10.9% | 9.1% | 94.2% | 97.9% | 109% | 108% | 106% |
| CC(C)/N=c1\cc2n(-c3ccc(Cl)cc3)c3ccccc3nc-2cc1Nc1ccc(Cl)cc1 | -14.1% | -12% | -19.1% | -25.2% | 7% | 83.3% | 75.1% | 60.2% | 56.4% | 51.2% |
| C#C[C@]1(OC(C)=O)CC[C@H]2[C@@H]3CCC4=CC(=NO)CC[C@@H]4[C@H]3CC[C@@]21CC (mixture of isomers) | -29% | -31% | 8.7% | 6.9% | 6.5% | 121% | 95% | 118% | 78.9% | 99.4% |
| CCn1cc(C(=O)O)c(=O)c2cc(F)c(N3CCNCC3)cc21 | 10.8% | -25.9% | 3.9% | -19.5% | -6.8% | 98.2% | 101% | 108% | 106% | 103% |
